These are yes or no findings as the source states them, for the method shown.

For the assay, the target named is SCRIB PDZ3 H1071A (human) (UniProt Q14160). Briefly: ITC; both purified. (In general: ITC needs no label: the signal is the heat of the interaction.)

Turning to LRLESSII [TBEV NS5_CTN peptide (C-terminal PBM of NS5)], the binding entry was “no binding”.

For the origin of these results see article PMC9317960 (Biochemical Journal, 2022).
